Results: PubChem BioAssay AID540256 (National Center for Advancing Translational Sciences (NCATS), 2011)
The whole screen tested about 300,000 compounds, of which about 3,700 (1.2%) were called active. The shares of active, inactive and inconclusive entries below differ from those in the screen. The call rests on the fitted dose curve; tested in HEK293 cells. Potencies beside an inconclusive call are fits to weak or partial responses and may not hold up.

Experiment: qHTS for Inhibitors of binding or entry into cells for Lassa Virus; further: nearly all actives have a fitted effect of over 50% in size
Conditions: Lassa virus pseudotype entry inhibition, cell reporter; activity change, negative = inhibition: at 37.9 µM (top of the series) unless noted
On the % scale 0 is the no-effect control and ±100 the full control effect; potency means the concentration at half of the fitted maximal effect.

| Structure (SMILES) | Potency | activity change, negative = inhibition |
| --- | --- | --- |
| CC1CCCC(NC(=S)NC(=O)c2ccccc2Br)C1C (centres undefined) | inconclusive: 12.6 µM [inhibitor, partial curve, poor fit] |  |
| Oc1ccccc1C=NN=C1c2ccccc2-c2ccccc21 | inconclusive: 12.6 µM [activator, single point] |  |
| COc1cc(C(=O)NCCc2ccc(F)cc2)ccc1OCC(=O)N1CCOCC1 |  | inactive: -0.783% |
| CCOc1ncccc1C(=O)OCc1ccc(Cl)cc1 | inconclusive: 5.62 µM [activator, partial curve, poor fit] |  |
| CSc1ccc(CCNC(=O)c2ccc(CS(=O)(=O)c3ccc(Br)cc3)o2)cc1 | inconclusive: 35.5 µM [inhibitor, single point] |  |
| Cc1ncoc1C(=O)N1CCCC(CCC(=O)NCc2ccccc2F)C1 (centres undefined) | inconclusive: 14.1 µM [inhibitor, single point] |  |
| O=C(CC1S/C(=N/N=C/c2c[nH]c3ccccc23)NC1=O)Nc1ccccc1 (centres undefined) | inconclusive: 0.82 µM [inhibitor, partial curve] |  |
| OC(CN1CCCCC1)Cn1c2ccccc2c2cc(Br)ccc21 (centres undefined) | inconclusive: 17.8 µM [inhibitor, single point] |  |
| c1ccc(-c2cnn3c(-c4ccccc4)c(-c4ccccc4)nc3n2)cc1 |  | inactive: 6.14% |
| CCOC(C(=O)OCCCN(CC)CC)(c1ccccc1)c1ccccc1 | inconclusive: 35.5 µM [inhibitor, single point] |  |
| Cc1ccc(CNC(=O)C(=O)NCCC2CCCCN2S(=O)(=O)c2cccs2)cc1 (centres undefined) | inconclusive: 8.91 µM [inhibitor, partial curve, poor fit] |  |
| Cc1ccc(-n2nc(C)c3c(C(=O)NCc4ccc(F)cc4)cc(C)nc32)cc1 | inconclusive: 20 µM [activator, single point] |  |
| CCOC(=O)c1c(-c2ccc(C)cc2)cn2ccccc12 |  | inactive: 1.25% |
| O=C(COc1ccc([N+](=O)[O-])cc1)Nc1cccc2cccnc12 |  | inactive: 7.67% [at 46.1 µM] |
| COc1ccc(S(=O)(=O)N2CCN(Cc3ccc4c(c3)OCO4)CC2)cc1F | inconclusive: 11.2 µM [inhibitor, single point] |  |
| CCN(CC)S(=O)(=O)c1cc(NC(=O)CNc2cccc(S(=O)(=O)N3CCOCC3)c2)ccc1C | inconclusive: 4.47 µM [inhibitor, full curve, poor fit] |  |
| CC(c1cccs1)N(Cc1ccco1)C(=S)Nc1ccccc1Cl (centres undefined) |  | inactive: -3.81% [at 46.1 µM] |
| CCC(C(=O)Nc1cc(OC)c(NC(=O)c2ccccc2)cc1OC)c1ccccc1 (centres undefined) | inconclusive: 5.01 µM [inhibitor, full curve, poor fit] |  |
| N#Cc1c(NC(=O)CSc2nnc(-c3ccccc3)o2)sc2c1CCCC2 |  | inactive: -19.2% |

3 structures from above, ordered by number of heavy atoms, ascending.

| Structure (SMILES) | Potency | activity change, negative = inhibition |
| --- | --- | --- |
| O=C(CC1S/C(=N/N=C/c2c[nH]c3ccccc23)NC1=O)Nc1ccccc1 (centres undefined) | inconclusive: 0.82 µM [inhibitor, partial curve] |  |
| Cc1ccc(-n2nc(C)c3c(C(=O)NCc4ccc(F)cc4)cc(C)nc32)cc1 | inconclusive: 20 µM [activator, single point] |  |
| Cc1ccc(CNC(=O)C(=O)NCCC2CCCCN2S(=O)(=O)c2cccs2)cc1 (centres undefined) | inconclusive: 8.91 µM [inhibitor, partial curve, poor fit] |  |
